Laboratory results reported in PMC10117100.

The chains behind the UniProt entries cited, without tags or fusion partners.
UniProt Q16254: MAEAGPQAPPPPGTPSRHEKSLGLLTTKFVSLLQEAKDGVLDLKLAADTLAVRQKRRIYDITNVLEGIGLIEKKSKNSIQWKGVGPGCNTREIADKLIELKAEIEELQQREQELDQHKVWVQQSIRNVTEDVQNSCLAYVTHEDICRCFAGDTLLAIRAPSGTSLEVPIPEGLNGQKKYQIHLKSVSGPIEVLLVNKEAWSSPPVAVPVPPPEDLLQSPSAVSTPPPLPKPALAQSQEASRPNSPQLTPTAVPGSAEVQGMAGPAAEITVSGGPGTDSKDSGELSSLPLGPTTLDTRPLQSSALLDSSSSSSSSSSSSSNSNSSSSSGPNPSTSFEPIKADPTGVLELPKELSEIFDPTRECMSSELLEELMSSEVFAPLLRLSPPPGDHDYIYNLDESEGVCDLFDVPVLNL
UniProt Q09028: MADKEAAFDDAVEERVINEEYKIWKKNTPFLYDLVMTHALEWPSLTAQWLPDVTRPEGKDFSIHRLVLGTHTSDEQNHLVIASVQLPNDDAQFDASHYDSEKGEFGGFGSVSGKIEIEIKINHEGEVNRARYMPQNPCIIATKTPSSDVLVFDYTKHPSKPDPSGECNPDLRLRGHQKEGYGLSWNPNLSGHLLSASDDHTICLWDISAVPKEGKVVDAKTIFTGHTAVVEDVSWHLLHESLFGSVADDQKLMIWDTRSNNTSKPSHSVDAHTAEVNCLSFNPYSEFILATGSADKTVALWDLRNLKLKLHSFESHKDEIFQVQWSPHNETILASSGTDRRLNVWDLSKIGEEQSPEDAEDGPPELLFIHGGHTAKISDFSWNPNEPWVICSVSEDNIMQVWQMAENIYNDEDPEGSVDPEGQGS

Each substance was assayed against T1, ΔNp73α-TAP (human) (UniProt O15350) (assay: affinity purification with mass spectrometry; tandem affinity purification (IgG Sepharose, TEV cleavage, calmodulin Sepharose) of ΔNp73α-TAP from the nuclear soluble fraction of 38HK; LC-MS of elution fraction 2; TAP tag alone as control; hits enriched more than 10-fold).
T1 sequence: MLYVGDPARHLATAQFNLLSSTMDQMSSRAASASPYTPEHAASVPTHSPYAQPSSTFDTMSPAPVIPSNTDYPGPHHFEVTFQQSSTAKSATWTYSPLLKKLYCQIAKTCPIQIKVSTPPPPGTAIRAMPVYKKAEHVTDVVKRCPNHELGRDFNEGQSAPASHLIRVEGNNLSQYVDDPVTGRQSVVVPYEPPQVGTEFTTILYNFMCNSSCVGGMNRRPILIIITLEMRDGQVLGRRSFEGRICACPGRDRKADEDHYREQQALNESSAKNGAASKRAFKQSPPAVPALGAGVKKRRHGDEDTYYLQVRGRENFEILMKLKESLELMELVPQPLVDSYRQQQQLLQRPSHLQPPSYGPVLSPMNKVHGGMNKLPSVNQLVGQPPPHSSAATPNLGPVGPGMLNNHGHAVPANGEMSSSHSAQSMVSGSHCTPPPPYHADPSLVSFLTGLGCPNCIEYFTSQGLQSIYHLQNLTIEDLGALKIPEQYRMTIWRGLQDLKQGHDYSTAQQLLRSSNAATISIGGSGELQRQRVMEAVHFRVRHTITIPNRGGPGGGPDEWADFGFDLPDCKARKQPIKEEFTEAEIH

Row | Substance | binding
1 | HPV38 E6 oncoprotein (in 38HK) (human papillomavirus type 38) | no binding
2 | HPV38 E7 oncoprotein (in 38HK) (human papillomavirus type 38) | no binding
3 | endogenous E2F4 (38HK) (from UniProt Q16254 1-413) | binds
4 | endogenous RBBP4 (38HK) (from UniProt Q09028 1-425) | no binding

No constants are given. Whether binding was seen depends on the method and setting. Binding seen in cells or lysates may run through a third protein. A yes stands for co-enrichment or nearness to the bait. Other partners may have been found. No binding means not detected with the bait.
